No constants are given. Whether binding was seen depends on the method and setting. Binding seen in cells or lysates may run through a third protein. Some entries that bind do so weakly or less than the wild type.
Tests used:
[1] = target: T1, GCM1, endogenous human (human (endogenous in fetal brain tissue)) (UniProt Q9NP62); test: co-IP; human fetal brain tissue, normal and low-folate NTDs; IP with antibody against GCM1, western blot for β-catenin
T1 sequence: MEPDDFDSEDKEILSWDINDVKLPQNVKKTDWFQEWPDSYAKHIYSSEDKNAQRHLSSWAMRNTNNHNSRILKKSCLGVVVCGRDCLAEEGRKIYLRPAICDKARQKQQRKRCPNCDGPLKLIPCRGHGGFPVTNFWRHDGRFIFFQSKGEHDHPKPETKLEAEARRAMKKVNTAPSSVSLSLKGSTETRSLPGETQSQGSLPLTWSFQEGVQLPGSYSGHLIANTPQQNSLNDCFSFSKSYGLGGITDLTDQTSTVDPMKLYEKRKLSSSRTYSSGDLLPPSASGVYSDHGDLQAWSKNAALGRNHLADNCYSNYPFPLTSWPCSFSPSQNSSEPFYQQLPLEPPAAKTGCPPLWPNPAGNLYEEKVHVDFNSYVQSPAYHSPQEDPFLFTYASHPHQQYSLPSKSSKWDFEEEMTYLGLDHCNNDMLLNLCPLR

[2] = target: T2, Gcm1 (glial cell missing 1), endogenous mouse (mouse (endogenous in C57BL/6 mESCs, NE-4C and CD-1 mouse embryos)) (UniProt P70348); test: co-IP; NE-4C cells, control and folate-deficient; nuclear protein with anti-Gcm1 or anti-TCF4 antibody cross-linked to Protein A/G plus agarose, overnight at 4 °C; western blot
T2 sequence: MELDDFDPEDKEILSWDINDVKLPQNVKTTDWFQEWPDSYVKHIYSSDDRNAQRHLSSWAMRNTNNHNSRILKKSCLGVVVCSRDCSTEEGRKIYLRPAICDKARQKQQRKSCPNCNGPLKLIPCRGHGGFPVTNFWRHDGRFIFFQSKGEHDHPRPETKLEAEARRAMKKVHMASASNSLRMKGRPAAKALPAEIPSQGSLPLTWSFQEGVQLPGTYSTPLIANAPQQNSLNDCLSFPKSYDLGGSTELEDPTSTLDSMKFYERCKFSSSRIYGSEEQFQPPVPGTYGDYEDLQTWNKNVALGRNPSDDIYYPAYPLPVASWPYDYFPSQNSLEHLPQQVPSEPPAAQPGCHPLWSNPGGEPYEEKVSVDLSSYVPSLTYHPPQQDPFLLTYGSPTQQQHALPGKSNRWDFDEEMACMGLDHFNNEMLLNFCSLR

[3] = target: T2, Gcm1 (glial cell missing 1), endogenous mouse (mouse (endogenous in C57BL/6 mESCs, NE-4C and CD-1 mouse embryos)); test: co-IP; brains and spines of control and NTDs CD-1 mouse embryos (E9.5; low-folate diet and MTX); IP with anti-Gcm1 antibody, western blot for TCF4 and β-catenin
[4] = target: T2, Gcm1 (glial cell missing 1), endogenous mouse (mouse (endogenous in C57BL/6 mESCs, NE-4C and CD-1 mouse embryos)); test: co-IP; C57BL/6 mESCs, control and folate-deficient; precleared nuclear protein incubated overnight at 4 °C with anti-Gcm1 or anti-TCF4 antibody cross-linked (disuccinimidyl suberate) to Protein A/G plus agarose; western blot
[5] = target: T3, Gcm1 overexpressed from the plasmid pGMLV-Gcm1 (UniProt P70348); test: co-IP; C57BL/6 mESCs transfected with pGMLV-Gcm1 (72 h; 0.5, 2 and 4 µg for the TCF4/β-catenin panel); nuclear protein with antibody cross-linked to Protein A/G plus agarose, overnight at 4 °C; western blot
T3 sequence: T2 sequence

[6] = target: T3, Gcm1 overexpressed from the plasmid pGMLV-Gcm1; test: co-IP; NE-4C cells transfected with pGMLV-Gcm1; IP with anti-Gcm1 antibody, western blot for TCF4 and β-catenin
[7] = target: T4, T-cell factor (TCF4), endogenous mouse (mouse (endogenous in C57BL/6 mESCs, NE-4C and CD-1 mouse embryos)), Q924A0; test: co-IP; C57BL/6 mESCs transfected with pGMLV-Gcm1 (72 h; 0.5, 2 and 4 µg for the TCF4/β-catenin panel); nuclear protein with antibody cross-linked to Protein A/G plus agarose, overnight at 4 °C; western blot; settings: remark: other sources report otherwise
T4 chain: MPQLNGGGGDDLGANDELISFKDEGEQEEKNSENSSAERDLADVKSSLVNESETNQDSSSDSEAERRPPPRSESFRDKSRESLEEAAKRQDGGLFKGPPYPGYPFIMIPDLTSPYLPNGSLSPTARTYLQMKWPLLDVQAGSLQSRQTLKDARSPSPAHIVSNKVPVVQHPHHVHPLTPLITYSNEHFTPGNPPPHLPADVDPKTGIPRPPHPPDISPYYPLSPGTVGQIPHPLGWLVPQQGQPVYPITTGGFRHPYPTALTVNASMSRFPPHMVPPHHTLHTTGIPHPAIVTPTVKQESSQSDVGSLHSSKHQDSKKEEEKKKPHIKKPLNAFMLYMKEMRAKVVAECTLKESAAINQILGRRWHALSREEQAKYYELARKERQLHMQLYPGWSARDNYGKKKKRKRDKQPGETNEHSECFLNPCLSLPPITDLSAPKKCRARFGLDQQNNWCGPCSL

[8] = target: T4, T-cell factor (TCF4), endogenous mouse …; test: co-IP; C57BL/6 mESCs, control and folate-deficient; precleared nuclear protein incubated overnight at 4 °C with anti-Gcm1 or anti-TCF4 antibody cross-linked (disuccinimidyl suberate) to Protein A/G plus agarose; western blot; settings: remark: other sources report otherwise

Measured: binding

β-catenin, endogenous human (from UniProt P35222 1-781)
binds: [1]

β-catenin, endogenous mouse (from UniProt Q02248 1-781)
binds: [2] | [3] | [4] | [5] | [6]

T-cell factor (TCF4), endogenous mouse (from UniProt Q924A0 1-459)
binds: [2] | [3] | [4] | [5] | [6]

B1: β-catenin, endogenous mouse, Q02248 1-781 (protein)
chain: MATQADLMELDMAMEPDRKAAVSHWQQQSYLDSGIHSGATTTAPSLSGKGNPEEEDVDTSQVLYEWEQGFSQSFTQEQVADIDGQYAMTRAQRVRAAMFPETLDEGMQIPSTQFDAAHPTNVQRLAEPSQMLKHAVVNLINYQDDAELATRAIPELTKLLNDEDQVVVNKAAVMVHQLSKKEASRHAIMRSPQMVSAIVRTMQNTNDVETARCTAGTLHNLSHHREGLLAIFKSGGIPALVKMLGSPVDSVLFYAITTLHNLLLHQEGAKMAVRLAGGLQKMVALLNKTNVKFLAITTDCLQILAYGNQESKLIILASGGPQALVNIMRTYTYEKLLWTTSRVLKVLSVCSSNKPAIVEAGGMQALGLHLTDPSQRLVQNCLWTLRNLSDAATKQEGMEGLLGTLVQLLGSDDINVVTCAAGILSNLTCNNYKNKMMVCQVGGIEALVRTVLRAGDREDITEPAICALRHLTSRHQEAEMAQNAVRLHYGLPVVVKLLHPPSHWPLIKATVGLIRNLALCPANHAPLREQGAIPRLVQLLVRAHQDTQRRTSMGGTQQQFVEGVRMEEIVEGCTGALHILARDVHNRIVIRGLNTIPLFVQLLYSPIENIQRVAAGVLCELAQDKEAAEAIEAEGATAPLTELLHSRNEGVATYAAAVLFRMSEDKPQDYKKRLSVELTSSLFRTEPMAWNETADLGLDIGAQGEALGYRQDDPSYRSFHSGGYGQDALGMDPMMEHEMGGHHPGADYPVDGLPDLGHAQDLMDGLPPGDSNQLAWFDTDL
binds: [7] | [8]
